Results deposited as PubChem BioAssay AID1259254 (NCATS, 2017)
This is an unselected part of about 59,000 reagents tested. Of all reagents, about 1,550 (2.6%) are marked active. 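G2 share is only a proxy for re-replication; each gene was hit by three separate siRNAs, and active genes were retested.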 Entries without a mark were called inactive. Reagents against one gene are numbered here. Not all columns of the deposit are shown. Not given: the amount of reagent.

Assay: 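Genome-wide screen for genes that prevent DNA re-replication in cancer cells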 (primary screen)
Cells: human HCT116 colorectal cancer cells
Reagent: single siRNA against human genes
Duration: 3 days
Measured: 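Imaged Hoechst DNA stain sorts each cell into a cycle phase by DNA amount; per plate, G2 fraction set to 0% for non-targeting and 100% for GMNN siRNA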
Reading the numbers: G2 robust z-score: higher = more G2 cells, more excess DNA replication
Rule for the call: 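An siRNA counts as active if its G2 robust z-score lies at least 5 MADs above the screen median; here such calls match roughly 38% of GMNN control or more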

{"gene symbol":"TBKBP1 (GeneID 9755)","reagent":1,"G2 robust z-score":-1.24}
{"gene symbol":"TBKBP1 (GeneID 9755)","reagent":2,"G2 robust z-score":0.878}
{"gene symbol":"TBKBP1 (GeneID 9755)","reagent":3,"G2 robust z-score":-0.737}
{"gene symbol":"AMIGO1 (GeneID 57463)","reagent":1,"G2 robust z-score":-0.0999}
{"gene symbol":"AMIGO1 (GeneID 57463)","reagent":2,"G2 robust z-score":1.43}
{"gene symbol":"AMIGO1 (GeneID 57463)","reagent":3,"G2 robust z-score":1.03}
{"gene symbol":"ABCF1 (GeneID 23)","reagent":1,"G2 robust z-score":-0.314}
{"gene symbol":"ABCF1 (GeneID 23)","reagent":2,"G2 robust z-score":3.16}
{"gene symbol":"ABCF1 (GeneID 23)","reagent":3,"G2 robust z-score":0.312}
{"gene symbol":"PCTP (GeneID 58488)","reagent":1,"G2 robust z-score":1.19}
{"gene symbol":"PCTP (GeneID 58488)","reagent":2,"G2 robust z-score":-0.429}
{"gene symbol":"PCTP (GeneID 58488)","reagent":3,"G2 robust z-score":2.9}

2 entries from above, reformatted:
gene symbol | reagent | G2 robust z-score
ABCF1 (GeneID 23) | 1 | -0.314
ABCF1 (GeneID 23) | 2 | 3.16

The results go on:
{"gene symbol":"WDSUB1 (GeneID 151525)","reagent":1,"G2 robust z-score":-1.07}
{"gene symbol":"WDSUB1 (GeneID 151525)","reagent":2,"G2 robust z-score":3.51}
{"gene symbol":"WDSUB1 (GeneID 151525)","reagent":3,"G2 robust z-score":-0.681}
{"gene symbol":"IGSF10 (GeneID 285313)","reagent":1,"G2 robust z-score":4.81}
{"gene symbol":"IGSF10 (GeneID 285313)","reagent":2,"G2 robust z-score":-0.629}
{"gene symbol":"IGSF10 (GeneID 285313)","reagent":3,"G2 robust z-score":-0.712}
